The list does not hold the whole screen: it gathers tests that were run many times, whatever their T/C, doses with no T/C, and many T/C values between a quarter and a half above the control. Other doses and runs of a compound stand elsewhere. T/C is the treated group as % of the vehicle group. Some doses have a count of surviving animals in place of a T/C: the source holds a T/C of zero for them, seemingly a mark for toxic or unscored doses. Some survivor counts are full or nearly so, which does not show that the dose was tolerated: survival well below the control is almost never listed, so the zero probably covers shortened survival too. Counts of survivors are from the toxicity check (mostly the fifth day) where no day follows; animals may have died later. Schedule codes are those of the source, taken here to give the interval after Q, in days (D) or hours (H), and the number of doses after X. Some doses were run more than once; the results are listed from low to high. Some schedules carry Z or #; the key to these is not given. Where survival is the endpoint, the PubChem record calls one and a half times the control and up active, and a quarter to a half above the control has no call in these data; cut-offs in other NCI protocols can differ. Some T/C values are followed by the survivors on the day toxicity was checked, most often the fifth; without a count, all were alive then.
System: BDF1 mice, L1210/MTX-resistant leukemia ip, survival T/C
Assay: NCI In Vivo Anticancer Drug Screen. Data for tumor model L1210 Leukemia resistant to Methotrexate; NSC 740 (intraperitoneal) in B6D2F1 (BDF1) mice
Settings: T/C endpoint: mean survival time, higher T/C = longer survival
Experimental: The antitumor activity of compounds was measured in mice bearing transplantable tumors. Survival or tumor size were measured and the results are expressed as the measurement made in the treated group (T) divided by the measurement made in the vehicle treated control group (C). The tumor model used in this assay is L1210 Leukemia resistant to Methotrexate; NSC 740 (intraperitoneal) in B6D2F1 (BDF1) mice

[1] = dose: 50.0 mg/kg/injection, schedule: Q01DX Z (ip), vehicle: methylcellulose (MC)
[2] = dose: 100.0 mg/kg/injection, schedule: Q01DX Z (ip), vehicle: methylcellulose (MC)
[3] = dose: 200.0 mg/kg/injection, schedule: Q01DX Z (ip), vehicle: methylcellulose (MC)
[4] = dose: 50.0 mg/kg/injection, schedule: Q01DX Z (ip), vehicle: carboxymethylcellulose (CMC)
[5] = dose: 250.0 mg/kg/injection, schedule: Q01DX Z (ip), vehicle: carboxymethylcellulose (CMC)
[6] = dose: 350.0 mg/kg/injection, schedule: Q01DX Z (ip), vehicle: other
[7] = dose: 500.0 mg/kg/injection, schedule: Q01DX Z (ip), vehicle: other
[8] = dose: 100.0 mg/kg/injection, schedule: Q01DX Z (ip), vehicle: saline
[9] = dose: 25.0 mg/kg/injection, schedule: Q01DX Z (ip), vehicle: carboxymethylcellulose (CMC)
[10] = dose: 6.3 mg/kg/injection, schedule: Q01DX Z (ip), vehicle: methylcellulose (MC)
[11] = dose: 12.5 mg/kg/injection, schedule: Q01DX Z (ip), vehicle: methylcellulose (MC)
[12] = dose: 25.0 mg/kg/injection, schedule: Q01DX Z (ip), vehicle: methylcellulose (MC)
[13] = dose: 25.0 mg/kg/injection, schedule: Q01DX Z (ip), vehicle: saline

## CCC1=C(c2ccc(OC)cc2)CCC(C(=O)O)C1C (configuration not stated)
[1]
  survivor count: 5 of 6
[2]
  survivor count: 6 of 6
[3]
  survivor count: 6 of 6
dose: 400.0 mg/kg/injection, schedule: Q01DX Z (ip), vehicle: methylcellulose (MC)
  survivor count: 4 of 6
dose: 800.0 mg/kg/injection, schedule: Q01DX Z (ip), vehicle: methylcellulose (MC)
  survivor count: 3 of 6

## CCn1cnc2c(=S)nc[nH]c21
[4]
  survivor count: 6 of 6
dose: 62.5 mg/kg/injection, schedule: Q01DX010 (ip), vehicle: saline
  survivor count: 6 of 6
dose: 200.0 mg/kg/injection, schedule: Q01DX Z (ip), vehicle: carboxymethylcellulose (CMC)
  survivor count: 6 of 6
[5]
  survivor count: 3 of 6

## Nc1nc(SCc2ccccc2)c2[nH]cnc2n1
dose: 32.0 mg/kg/injection, schedule: Q01DX010 (ip), vehicle: saline
  survivor count: 6 of 6
dose: 125.0 mg/kg/injection, schedule: Q01DX Z (ip), vehicle: carboxymethylcellulose (CMC)
  survivor count: 6 of 6
[5]
  survivor count: 0 of 6
dose: 500.0 mg/kg/injection, schedule: Q01DX Z (ip), vehicle: carboxymethylcellulose (CMC)
  survivor count: 0 of 6

## C[N+](C)(C)c1ncnc2nc[nH]c12
dose: 30.0 mg/kg/injection, schedule: Q01DX010 (ip), vehicle: saline
  survivor count: 6 of 6
dose: 60.0 mg/kg/injection, schedule: Q01DX010 (ip), vehicle: saline
  survivor count: 6 of 6
dose: 120.0 mg/kg/injection, schedule: Q01DX010 (ip), vehicle: saline
  survivor count: 6 of 6

## CCCSc1ncnc2nc[nH]c12
dose: 1.0 mg/kg/injection, schedule: Q01DX Z (ip), vehicle: other
  survivor count: 6 of 6
[6]
  survivor count: 1 of 6
[7]
  survivor count: 0 of 6

## O=c1[nH]cc(F)c(=O)[nH]1
[8]
  survivor count: 5 of 6

## Cn1cnc([N+](=O)[O-])c1Sc1nc(N)nc2nc[nH]c12
dose: 2.0 mg/kg/injection, schedule: Q01DX Z (ip), vehicle: methylcellulose (MC)
  T/C: 131 % of control
dose: 4.0 mg/kg/injection, schedule: Q01DX Z (ip), vehicle: methylcellulose (MC)
  T/C: 134 % of control
dose: 8.0 mg/kg/injection, schedule: Q01DX Z (ip), vehicle: methylcellulose (MC)
  survivor count: 6 of 6

## NC(=O)N(CCCl)N=O
dose: 1.0 mg/kg/injection, schedule: Q01DX010 (ip), vehicle: saline
  T/C: 141 % of control
dose: 2.0 mg/kg/injection, schedule: Q01DX010 (ip), vehicle: saline
  T/C: 133 % of control

## S=P(N1CCOCC1)(N1CC1)N1CC1
dose: 4.0 mg/kg/injection, schedule: Q01DX Z (ip), vehicle: carboxymethylcellulose (CMC)
  survivor count: 6 of 6
dose: 40.0 mg/kg/injection, schedule: Q01DX Z (ip), vehicle: carboxymethylcellulose (CMC)
  survivor count: 6 of 6
dose: 80.0 mg/kg/injection, schedule: Q01DX Z (ip), vehicle: carboxymethylcellulose (CMC)
  survivor count: 6 of 6

## C[C@H](N)C(=O)N[C@@H]1[C@H]2C(=C(O)C[C@@H](O)[C@@H]2O)C(=O)O[C@@H]1C
dose: 300.0 mg/kg/injection, schedule: Q01DX Z (ip), vehicle: saline
  T/C: 132 and 149 % of control
dose: 500.0 mg/kg/injection, schedule: Q01DX Z (ip), vehicle: saline
  T/C: 138 % of control [5 of 6 alive]

## CC(CCC(C)OS(C)(=O)=O)OS(C)(=O)=O (configuration not stated)
[9]
  survivor count: 6 of 6

## N#[N+]c1cnc([O-])[nH]c1=O
dose: 0.63 mg/kg/injection, schedule: Q01DX Z (ip), vehicle: methylcellulose (MC)
  survivor count: 6 of 6
dose: 1.25 mg/kg/injection, schedule: Q01DX Z (ip), vehicle: methylcellulose (MC)
  survivor count: 6 of 6
dose: 2.5 mg/kg/injection, schedule: Q01DX Z (ip), vehicle: methylcellulose (MC)
  survivor count: 6 of 6

## CN(C)c1nc(N(C)C)nc(N(C)C)n1
dose: 2.0 mg/kg/injection, schedule: Q01DX Z (ip), vehicle: other
  survivor count: 6 of 6
[6]
  survivor count: 4 of 6
[7]
  survivor count: 2 of 6

## O=C(CCBr)N1CCN(C(=O)CCBr)CC1
[10]
  survivor count: 5 of 6
[11]
  survivor count: 5 of 6
[12]
  survivor count: 5 of 6

## Nc1nc(N)c2nc(CN(CCO)c3ccc(C(=O)NC(CCC(=O)O)C(=O)O)cc3)cnc2n1 (configuration not stated)
dose: 1.0 mg/kg/injection, schedule: Q01DX009 (ip), vehicle: sodium bicarbonate
  survivor count: 6 of 6
dose: 2.0 mg/kg/injection, schedule: Q01DX009 (ip), vehicle: sodium bicarbonate
  survivor count: 6 of 6
dose: 4.0 mg/kg/injection, schedule: Q01DX009 (ip), vehicle: sodium bicarbonate
  survivor count: 6 of 6
dose: 8.0 mg/kg/injection, schedule: Q01DX009 (ip), vehicle: sodium bicarbonate
  survivor count: 6 of 6
dose: 16.0 mg/kg/injection, schedule: Q01DX009 (ip), vehicle: sodium bicarbonate
  survivor count: 6 of 6

## O=C1C(NC(=O)C2CCCCC2)=C(N2CC2)C(=O)C(NC(=O)C2CCCCC2)=C1N1CC1
[11]
  survivor count: 6 of 6
[12]
  survivor count: 6 of 6
[1]
  survivor count: 0 of 6 and 4 of 6
[2]
  survivor count: 0 of 6
[3]
  survivor count: 0 of 6

## CSc1ncnc2c1ncn2C1OC(CO)C(O)C1O (configuration not stated)
dose: 5.0 mg/kg/injection, schedule: Q01DX010 (ip), vehicle: saline
  T/C: 140 % of control
[13]
  survivor count: 6 of 6
dose: 50.0 mg/kg/injection, schedule: Q01DX Z (ip), vehicle: saline
  survivor count: 6 of 6

## O=C(Nc1ccc(C2=NCCCN2)cc1)c1ccc(NC(=O)c2ccc(C3=NCCCN3)cc2)cc1
dose: 2.0 mg/kg/injection, schedule: Q01DX010 (ip), vehicle: other
  T/C: 130 % of control
dose: 16.0 mg/kg/injection, schedule: Q01DX010 (ip), vehicle: other
  survivor count: 5 of 6 and 6 of 6
dose: 32.0 mg/kg/injection, schedule: Q01DX010 (ip), vehicle: other
  survivor count: 0 of 6

## O=C(Nc1ccc(C2=NCCN2)cc1)c1cccc(C(=O)Nc2ccc(C3=NCCN3)cc2)c1
[10]
  T/C: 133 % of control

## CCC(=O)O[C@H]1CC[C@H]2[C@@H]3CCC4=CC(=O)CC[C@]4(C)[C@H]3CC[C@]12C
dose: 500.0 mg/kg/injection, schedule: Q01DX Z (sc), vehicle: steroid suspending solution
  T/C: 98, 106, 108, 110 % of control

## Nc1ccc(C(=O)NO)cc1
dose: 900.0 mg/kg/injection, schedule: Q01DX015 (ip), vehicle: carboxymethylcellulose (CMC)
  survivor count: 2 of 10

## CC(=O)Nc1ccc2nc3ccc(NC(C)=O)cc3[n+](-c3ccccc3)c2c1
dose: 1.0 mg/kg/injection, schedule: Q01DX Z (ip), vehicle: carboxymethylcellulose (CMC)
  survivor count: 6 of 6
[9]
  survivor count: 6 of 6
[4]
  survivor count: 6 of 6
dose: 75.0 mg/kg/injection, schedule: Q01DX Z (ip), vehicle: carboxymethylcellulose (CMC)
  survivor count: 6 of 6
dose: 100.0 mg/kg/injection, schedule: Q01DX Z (ip), vehicle: carboxymethylcellulose (CMC)
  survivor count: 5 of 6

## CS(=O)(=O)OCCCl
[13]
  survivor count: 1 of 6
[8]
  survivor count: 4 of 6
dose: 200.0 mg/kg/injection, schedule: Q01DX Z (ip), vehicle: saline
  survivor count: 0 of 6

Source: PubChem BioAssay AID284 (DTP/NCI, 2004)
